Not every detail of the peptide structures is certain; ends, links or a residue may be inferred. Where a SMILES comes first, the peptide text is derived from it. Bridges are numbered along the chain shown (N, C = ends).
Target: endothelin receptor ([125I]-ET-1 binding), rat heart ventricle
Assay: Inhibition of [125I]-ET-1 binding in a receptor assay, rat heart ventricle
Conditions: [125I]-ET-1, rat heart ventricle 10 μg, 37° C., 2 hours
Method: The compounds of Formula I are valuable antagonists of endothelin. […] Thus, the compounds of Formula I were tested for their ability to inhibit [^125 I]-ET-1([^125 I]-Endothelin-1) binding in a receptor assay. The binding of the compounds of Formula I is determined by incubation (37° C., 2 hours) of a compound of Formula I with [^125 I]-ET-1 and the tissue (rat heart ventricle (10 μg)) in 50 mM Tris(hydroxymethyl)aminomethane hydrochloride (Tris-HCl) (pH 7.4), 5 mM ethylenediamine tetraacetic acid (EDTA), 2 mM ethylene glycol bis(β-aminoethyl ether)N,N,N',N'-tetraacetic acid (EGTA), 100 μM phenylmethylsulfonyl fluoride (PMSF), and 100 μM bacitracin containing protease inhibitors (total volume of 0.5 mL). IC50 values are calculated by weighing nonlinear regression curve-fitting to the mass-action (Langmuir) equation. The functional activity of compounds of Formula I is determined in Rat-1 cells by measuring intracellular levels of second messengers. Thus, cells are prelabeled with [^3 H]-inositol and endothelin-stimulated accumulation of total [^3 H]-inositol phosphates in the presence of Li^+ is monitored using anion exchange chromatography as described by Muldoon, L. L., et al, Journal of Biological Chemistry, Volume 264, pages 8529-8536 (1989) and Dudley, D. T., et al, Molecular Pharmacology, Volume 38, pages 370-377 (1990). […]

SMILES | IC50 [µM]
CC[C@H](C)[C@H](NC(=O)[C@H](CC(=O)O)NC(=O)[C@H](CC(C)C)NC(=O)[C@H](Cc1c[nH]cn1)NC(=O)[C@@H]1CSSC[C@H](N)C(=O)N[C@@H](C(C)C)C(=O)N[C@@H](Cc2ccc(O)cc2)C(=O)N[C@@H](Cc2ccccc2)C(=O)N1)C(=O)N[C@H](C(=O)N[C@@H](Cc1c[nH]c2ccccc12)C(=O)O)[C@@H](C)CC [Example 1] (H-CVYFCHLDIIW-OH; disulfide 1-5) | 6.5
CC[C@H](C)[C@H](NC(=O)[C@H](CC(=O)O)NC(=O)[C@H](CC(C)C)NC(=O)[C@H](Cc1c[nH]cn1)NC(=O)[C@@H]1CSSC[C@H](N)C(=O)N[C@@H](CO)C(=O)N[C@@H](CC(=O)O)C(=O)N[C@@H](CCCCN)C(=O)N[C@@H](CCC(=O)O)C(=O)N[C@@H](C(C)C)C(=O)N[C@@H](Cc2ccc(O)cc2)C(=O)N[C@@H](Cc2ccccc2)C(=O)N1)C(=O)N[C@H](C(=O)N[C@@H](Cc1c[nH]c2ccccc12)C(=O)O)[C@@H](C)CC [Example 7] (H-CSDKEVYFCHLDIIW-OH; disulfide 1-9) | 3.5

Source: US5260276A, “Linear and monocyclic endothelin antagonists” (Warner-Lambert Company, priority 1991, dated 1993)
